According to the supplement of paper PMC12067093, “Discovery and optimisation of a covalent ligand for TRIM25 and its application to targeted protein ubiquitination” (Chemical Science, 2025):
This is one part of the list.

The chains behind the UniProt entries cited, without tags or fusion partners. Where a name states a change or a piece, a line headed by the entry shows the natural chain unless it says otherwise.
UniProt Q9NR09, whole entry, looked up: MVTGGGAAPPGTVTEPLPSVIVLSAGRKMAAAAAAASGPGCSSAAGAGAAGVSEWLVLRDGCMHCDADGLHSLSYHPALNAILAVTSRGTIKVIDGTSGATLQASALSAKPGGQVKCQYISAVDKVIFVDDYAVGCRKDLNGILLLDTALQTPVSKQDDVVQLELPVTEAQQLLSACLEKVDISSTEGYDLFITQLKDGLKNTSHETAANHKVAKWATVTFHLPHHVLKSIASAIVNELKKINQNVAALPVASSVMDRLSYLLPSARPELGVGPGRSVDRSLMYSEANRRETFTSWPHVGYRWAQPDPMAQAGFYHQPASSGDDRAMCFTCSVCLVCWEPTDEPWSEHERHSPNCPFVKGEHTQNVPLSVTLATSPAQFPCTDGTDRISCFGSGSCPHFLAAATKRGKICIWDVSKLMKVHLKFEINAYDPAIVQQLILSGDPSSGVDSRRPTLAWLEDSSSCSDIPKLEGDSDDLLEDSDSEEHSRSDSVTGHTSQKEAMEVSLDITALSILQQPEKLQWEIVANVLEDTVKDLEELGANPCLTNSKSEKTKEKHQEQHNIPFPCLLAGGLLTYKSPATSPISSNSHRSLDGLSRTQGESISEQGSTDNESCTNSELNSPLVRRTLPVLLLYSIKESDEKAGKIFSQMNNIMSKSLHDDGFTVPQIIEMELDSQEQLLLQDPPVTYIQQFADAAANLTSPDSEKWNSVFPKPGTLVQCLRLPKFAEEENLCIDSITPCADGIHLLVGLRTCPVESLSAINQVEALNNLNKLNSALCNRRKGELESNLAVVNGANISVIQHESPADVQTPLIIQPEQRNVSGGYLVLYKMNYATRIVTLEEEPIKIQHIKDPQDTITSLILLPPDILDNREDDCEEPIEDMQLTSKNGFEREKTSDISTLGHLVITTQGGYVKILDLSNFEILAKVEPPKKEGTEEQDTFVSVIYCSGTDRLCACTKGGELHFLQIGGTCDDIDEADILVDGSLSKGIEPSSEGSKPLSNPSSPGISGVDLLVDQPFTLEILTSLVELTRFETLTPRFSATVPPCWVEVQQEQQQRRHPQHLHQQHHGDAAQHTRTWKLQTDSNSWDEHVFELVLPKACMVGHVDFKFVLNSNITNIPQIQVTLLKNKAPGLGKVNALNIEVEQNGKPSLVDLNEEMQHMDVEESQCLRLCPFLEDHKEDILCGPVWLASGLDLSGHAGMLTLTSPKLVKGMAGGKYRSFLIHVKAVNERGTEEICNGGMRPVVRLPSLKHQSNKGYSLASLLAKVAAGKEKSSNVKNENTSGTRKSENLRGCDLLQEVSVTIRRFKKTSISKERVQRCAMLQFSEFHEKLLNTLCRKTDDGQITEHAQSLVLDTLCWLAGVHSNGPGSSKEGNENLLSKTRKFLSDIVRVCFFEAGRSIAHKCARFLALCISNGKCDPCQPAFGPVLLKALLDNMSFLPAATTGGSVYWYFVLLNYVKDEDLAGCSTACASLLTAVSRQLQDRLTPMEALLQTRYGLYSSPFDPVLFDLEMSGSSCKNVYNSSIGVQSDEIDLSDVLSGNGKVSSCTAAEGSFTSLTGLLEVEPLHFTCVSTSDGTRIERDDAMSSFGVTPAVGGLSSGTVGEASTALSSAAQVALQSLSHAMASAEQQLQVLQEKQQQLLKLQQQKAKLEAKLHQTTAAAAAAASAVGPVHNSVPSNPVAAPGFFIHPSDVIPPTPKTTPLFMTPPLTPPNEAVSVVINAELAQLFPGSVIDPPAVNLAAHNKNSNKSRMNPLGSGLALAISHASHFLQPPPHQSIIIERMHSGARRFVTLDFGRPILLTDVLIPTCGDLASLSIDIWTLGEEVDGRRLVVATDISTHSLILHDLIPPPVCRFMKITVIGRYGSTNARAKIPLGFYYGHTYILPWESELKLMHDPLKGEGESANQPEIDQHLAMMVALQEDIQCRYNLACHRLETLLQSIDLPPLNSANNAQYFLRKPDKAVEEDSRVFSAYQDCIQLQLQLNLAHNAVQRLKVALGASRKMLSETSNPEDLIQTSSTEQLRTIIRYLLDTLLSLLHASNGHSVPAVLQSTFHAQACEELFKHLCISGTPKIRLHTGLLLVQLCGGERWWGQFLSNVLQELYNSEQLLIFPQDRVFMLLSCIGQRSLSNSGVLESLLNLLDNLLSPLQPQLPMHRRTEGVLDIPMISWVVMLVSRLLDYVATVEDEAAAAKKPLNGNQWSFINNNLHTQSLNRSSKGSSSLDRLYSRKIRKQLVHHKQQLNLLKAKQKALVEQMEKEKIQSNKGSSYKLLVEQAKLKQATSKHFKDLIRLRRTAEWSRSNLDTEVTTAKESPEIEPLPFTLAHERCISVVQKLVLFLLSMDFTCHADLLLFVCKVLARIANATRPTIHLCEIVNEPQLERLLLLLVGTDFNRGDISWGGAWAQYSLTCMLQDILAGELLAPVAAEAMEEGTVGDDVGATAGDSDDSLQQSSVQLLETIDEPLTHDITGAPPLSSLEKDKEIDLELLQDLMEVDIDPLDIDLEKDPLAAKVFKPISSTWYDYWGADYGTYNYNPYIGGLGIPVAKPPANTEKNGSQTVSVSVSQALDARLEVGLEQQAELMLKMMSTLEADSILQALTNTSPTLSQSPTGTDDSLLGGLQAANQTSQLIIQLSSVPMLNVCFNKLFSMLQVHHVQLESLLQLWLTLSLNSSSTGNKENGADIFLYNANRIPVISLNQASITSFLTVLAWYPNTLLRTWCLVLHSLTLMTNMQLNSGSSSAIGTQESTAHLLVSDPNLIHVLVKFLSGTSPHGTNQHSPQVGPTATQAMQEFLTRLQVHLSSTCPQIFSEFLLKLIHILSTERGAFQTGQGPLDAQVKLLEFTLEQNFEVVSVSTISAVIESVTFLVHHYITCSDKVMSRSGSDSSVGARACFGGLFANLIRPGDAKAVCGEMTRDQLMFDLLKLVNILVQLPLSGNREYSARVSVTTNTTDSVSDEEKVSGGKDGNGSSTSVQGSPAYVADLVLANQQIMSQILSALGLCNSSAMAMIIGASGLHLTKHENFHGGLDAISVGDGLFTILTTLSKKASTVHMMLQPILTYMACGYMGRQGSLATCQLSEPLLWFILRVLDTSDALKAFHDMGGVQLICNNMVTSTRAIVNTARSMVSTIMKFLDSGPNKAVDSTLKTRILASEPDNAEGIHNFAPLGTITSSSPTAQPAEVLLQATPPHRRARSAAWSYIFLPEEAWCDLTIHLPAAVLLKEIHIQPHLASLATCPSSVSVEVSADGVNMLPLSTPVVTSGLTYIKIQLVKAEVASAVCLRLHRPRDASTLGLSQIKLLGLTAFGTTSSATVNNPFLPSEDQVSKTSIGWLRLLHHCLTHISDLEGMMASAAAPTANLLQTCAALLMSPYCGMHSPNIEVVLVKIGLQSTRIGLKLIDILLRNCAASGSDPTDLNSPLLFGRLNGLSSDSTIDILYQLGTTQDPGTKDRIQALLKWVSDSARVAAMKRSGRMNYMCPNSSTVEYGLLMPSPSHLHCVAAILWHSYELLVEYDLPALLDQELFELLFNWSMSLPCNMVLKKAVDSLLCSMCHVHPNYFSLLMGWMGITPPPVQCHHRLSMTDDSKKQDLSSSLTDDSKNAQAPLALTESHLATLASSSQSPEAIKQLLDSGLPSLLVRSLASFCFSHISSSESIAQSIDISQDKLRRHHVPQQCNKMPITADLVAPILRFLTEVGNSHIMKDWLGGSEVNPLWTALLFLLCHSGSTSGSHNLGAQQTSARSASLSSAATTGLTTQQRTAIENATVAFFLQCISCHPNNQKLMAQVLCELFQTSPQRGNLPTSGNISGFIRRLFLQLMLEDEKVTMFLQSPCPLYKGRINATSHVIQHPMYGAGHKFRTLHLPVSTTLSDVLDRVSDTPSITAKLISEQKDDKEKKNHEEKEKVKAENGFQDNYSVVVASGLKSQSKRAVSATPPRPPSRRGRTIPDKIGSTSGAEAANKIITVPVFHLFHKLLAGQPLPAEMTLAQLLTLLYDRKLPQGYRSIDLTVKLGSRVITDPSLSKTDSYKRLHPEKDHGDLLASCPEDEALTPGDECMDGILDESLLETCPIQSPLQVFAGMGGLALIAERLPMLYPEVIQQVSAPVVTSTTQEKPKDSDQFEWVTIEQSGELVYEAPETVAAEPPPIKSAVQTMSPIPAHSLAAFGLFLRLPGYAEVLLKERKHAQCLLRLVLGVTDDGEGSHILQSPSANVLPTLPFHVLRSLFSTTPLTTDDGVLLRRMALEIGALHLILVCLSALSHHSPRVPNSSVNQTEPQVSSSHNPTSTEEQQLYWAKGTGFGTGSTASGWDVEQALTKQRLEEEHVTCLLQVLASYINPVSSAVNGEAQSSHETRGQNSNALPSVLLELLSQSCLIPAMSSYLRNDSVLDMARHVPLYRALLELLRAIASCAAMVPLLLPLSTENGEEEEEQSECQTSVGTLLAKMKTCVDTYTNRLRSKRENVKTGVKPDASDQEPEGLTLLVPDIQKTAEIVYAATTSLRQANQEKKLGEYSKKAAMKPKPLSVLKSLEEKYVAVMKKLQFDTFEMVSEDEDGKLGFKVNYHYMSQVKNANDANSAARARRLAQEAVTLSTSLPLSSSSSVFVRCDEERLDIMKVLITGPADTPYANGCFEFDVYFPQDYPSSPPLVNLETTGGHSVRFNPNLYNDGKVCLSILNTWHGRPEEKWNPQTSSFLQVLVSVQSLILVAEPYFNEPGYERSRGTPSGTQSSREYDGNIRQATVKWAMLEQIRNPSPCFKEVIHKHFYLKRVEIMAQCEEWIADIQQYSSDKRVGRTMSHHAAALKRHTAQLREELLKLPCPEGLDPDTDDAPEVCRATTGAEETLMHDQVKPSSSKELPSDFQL
UniProt P54132: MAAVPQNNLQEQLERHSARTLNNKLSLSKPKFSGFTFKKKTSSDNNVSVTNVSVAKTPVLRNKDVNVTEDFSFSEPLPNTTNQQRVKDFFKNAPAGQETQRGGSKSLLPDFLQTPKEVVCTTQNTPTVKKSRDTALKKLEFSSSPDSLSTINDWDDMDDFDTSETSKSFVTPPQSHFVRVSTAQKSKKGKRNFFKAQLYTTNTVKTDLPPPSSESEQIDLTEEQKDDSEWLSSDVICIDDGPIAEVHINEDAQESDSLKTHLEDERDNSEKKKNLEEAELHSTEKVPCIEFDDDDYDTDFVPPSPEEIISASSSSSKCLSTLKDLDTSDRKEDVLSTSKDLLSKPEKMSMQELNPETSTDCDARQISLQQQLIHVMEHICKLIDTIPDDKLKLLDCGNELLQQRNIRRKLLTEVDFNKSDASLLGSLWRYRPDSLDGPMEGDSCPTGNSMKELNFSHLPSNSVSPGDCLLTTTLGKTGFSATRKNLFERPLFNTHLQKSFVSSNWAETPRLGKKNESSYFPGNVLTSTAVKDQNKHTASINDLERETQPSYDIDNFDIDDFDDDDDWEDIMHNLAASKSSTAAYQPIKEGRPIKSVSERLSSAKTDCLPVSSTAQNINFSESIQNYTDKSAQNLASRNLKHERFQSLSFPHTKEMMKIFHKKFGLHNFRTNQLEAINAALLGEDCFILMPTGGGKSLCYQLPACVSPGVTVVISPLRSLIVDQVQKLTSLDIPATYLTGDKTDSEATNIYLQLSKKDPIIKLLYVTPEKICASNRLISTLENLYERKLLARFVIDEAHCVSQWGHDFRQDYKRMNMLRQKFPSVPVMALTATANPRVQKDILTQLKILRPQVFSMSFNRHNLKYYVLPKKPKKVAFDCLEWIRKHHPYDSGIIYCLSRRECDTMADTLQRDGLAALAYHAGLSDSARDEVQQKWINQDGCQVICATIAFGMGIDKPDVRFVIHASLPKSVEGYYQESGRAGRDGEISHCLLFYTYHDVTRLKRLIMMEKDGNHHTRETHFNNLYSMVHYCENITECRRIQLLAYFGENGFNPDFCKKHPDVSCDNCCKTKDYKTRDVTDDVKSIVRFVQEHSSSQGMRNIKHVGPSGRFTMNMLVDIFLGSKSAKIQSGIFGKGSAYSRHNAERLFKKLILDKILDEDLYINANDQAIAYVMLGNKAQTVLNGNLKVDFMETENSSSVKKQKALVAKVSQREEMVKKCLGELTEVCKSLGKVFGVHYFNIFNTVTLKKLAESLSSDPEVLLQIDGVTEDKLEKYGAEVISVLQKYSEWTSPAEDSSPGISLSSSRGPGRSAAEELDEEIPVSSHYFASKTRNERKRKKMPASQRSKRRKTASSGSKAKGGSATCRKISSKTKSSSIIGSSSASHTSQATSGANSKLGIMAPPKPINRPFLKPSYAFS
UniProt O75934: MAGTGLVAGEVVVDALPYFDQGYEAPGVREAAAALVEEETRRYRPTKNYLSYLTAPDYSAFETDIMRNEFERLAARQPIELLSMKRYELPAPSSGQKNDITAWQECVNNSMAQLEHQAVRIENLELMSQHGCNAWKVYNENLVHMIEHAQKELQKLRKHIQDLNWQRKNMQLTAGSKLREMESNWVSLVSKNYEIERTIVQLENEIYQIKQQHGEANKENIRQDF

Compound: Cc1cc(ccc1-c1ccccc1)C(=O)N1CCCN(CC1)C(=O)CCl [compound 10]
Experiment: probe-labelled cysteine peptide fold change vs DMSO (competition) (log2 fold change); higher = less target engagement (more negative = stronger competition)
Conditions: THP-1, incubation time: 4 h
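Further: competitive profiling in live THP-1 cells: cysteine peptides tagged with an iodoacetamide desthiobiotin (IA-DTB) probe, intensity after compound treatment relative to DMSO-treated cells.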

Target | probe-labelled cysteine peptide fold change (10 µM) | probe-labelled cysteine peptide fold change (50 µM)
BCAS3_Q9H6U6_412_VQDICFSHDCR (UniProt Q9H6U6) | 0.0615 | 0.235
BMP2K_Q9NSY1_912_KVNVQECHAVGPEAHTIPGYPK (UniProt Q9NSY1) | -0.364 | -0.787
BAP18_Q8IXM2_66_RFGDDLNHISCVIK (UniProt Q8IXM2) | 0.146 | -0.147
BPGM_P07738_23_FCSWVDQK (UniProt P07738) | -0.262 | -0.0213
BPTF_Q12830_940_AVQMCSKPR (UniProt Q12830) | -0.098 | -0.2
AURKA_O14965_33_RVLVTQQFPCQNPLPVNSGQAQR (UniProt O14965) | -0.134 | -0.0811
BIRC6_Q9NR09_4813+4828_LPCPEGLDPDTDDAPEVCR (UniProt Q9NR09) | -0.126 | 0.236
BARGIN_Q6ZT62_213_RKVEQCRDEYLADLYHFVTK (UniProt Q6ZT62) | -0.115 | -0.074
BLM_P54132_468_ELNFSHLPSNSVSPGDCLLTTTLGK (UniProt P54132) | -0.171 | -0.465
BAG5_Q9UL15_157+166_ICAVQEIIEDCMK (UniProt Q9UL15) | 0.189 | 0.196
BCR_P11274_737_HVFLFTDLLLCTK (UniProt P11274) | 0.156 | 0.143
BORCS6_Q96GS4_356_TLEVLEALCK (UniProt Q96GS4) | 0.114 | 0.189
BLM_P54132_380_QISLQQQLIHVMEHICK (UniProt P54132) | 0.201 | 0.13
BAZ1B_Q9UIG0_1213_AFHLFCLR (UniProt Q9UIG0) | -0.0183 | -0.0178
BIRC6_Q9NR09_2067_HLCISGTPK (UniProt Q9NR09) | 0.0557 | 0.28
BARGIN_Q6ZT62_213_KVEQCRDEYLADLYHFVTK (UniProt Q6ZT62) | 0.0523 | 0.00893
BAZ1B_Q9UIG0_1228+1231_AFHLFCLRPALYEVPDGEWQCPACQPATAR (UniProt Q9UIG0) | 0.0986 | -0.43
BIRC2_Q13490_315_CWESGDDPWVEHAK (UniProt Q13490) | -0.0327 | -0.0477
BAZ1B_Q9UIG0_1175_MHVLLGMLDACIK (UniProt Q9UIG0) | -0.0243 | -0.0283
BAG1_Q99933_272_DLQAEALCK (UniProt Q99933) | -0.0132 | -0.446

Target | probe-labelled cysteine peptide fold change (10 µM) | probe-labelled cysteine peptide fold change (50 µM)
BAZ2A_Q9UIF9_583_WQGETWYYGPCGK (UniProt Q9UIF9) | 0.0264 | 0.0666
ATXN7L3_Q14CW9_226_CPQHTDEQRR (UniProt Q14CW9) | -0.0936 | -0.132
BAIAP2_Q9UQB8_202_QCAVAK (UniProt Q9UQB8) | -0.153 | -0.249
BPTF_Q12830_1241_EGCQSDSMR (UniProt Q12830) | -0.163 | -0.204
BABAM1_Q9NWV8_294_YEVALAGPALELHNCMAK (UniProt Q9NWV8) | 0.177 | 0.145
BAZ1B_Q9UIG0_994_QGQNLWFLCDSQK (UniProt Q9UIG0) | 0.0364 | 0.0734
BCAP29_Q9UHQ4_171_DEECVLEAENK (UniProt Q9UHQ4) | -0.0125 | 0.145
BCLAF1_Q9NYF8_688_LRCDSADLR (UniProt Q9NYF8) | 0.00664 | -0.296
ATXN10_Q9UBB4_382_LIGNLCYK (UniProt Q9UBB4) | 0.088 | 0.11
BCKDK_O14874_152_DQADEAQYCQLVR (UniProt O14874) | -0.0953 | -0.00515
BCAS2_O75934_132_IENLELMSQHGCNAWK (UniProt O75934) | 0.126 | -0.0653
BIK_Q13323_63_LACIGDEMDVSLR (UniProt Q13323) | -0.093 | 0.428
BAZ1A_Q9NRL2_586_GGFDATDDACMELR (UniProt Q9NRL2) | -0.11 | -0.152
BLM_P54132_120_EVVCTTQNTPTVK (UniProt P54132) | -0.14 | -0.117
BAZ1B_Q9UIG0_1420_QVFTNAEVYNCR (UniProt Q9UIG0) | -0.115 | -0.382
BPNT1_O95861_206_LVTDCVAAMNPDAVLR (UniProt O95861) | -0.0424 | 0.0172
BAZ2A_Q9UIF9_1697_KGDNDEFLLLCDGCDR (UniProt Q9UIF9) | 0.0661 | -0.35
B4GALT3_O60512_209_EALRDEEWDCLFLHDVDLLPENDHNLYVCDPR (UniProt O60512) | -0.204 | 0.195
ATXN10_Q9UBB4_84_SSHAVELACRDPSQVENLASSLQLITECFR (UniProt Q9UBB4) | 0.507 | 0.322
